PubChem BioAssay AID1508597, Cure First, 2020
This is an unselected part of the about 2,100 reagents, in one setting of the screen. 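Calls flag viability under 80% in either arm, not effects specific to rucaparib; the reference for percent is not stated.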 Entries without a mark were called inactive. Some reagents were tested in more than one well and are listed for each. The record does not give: the 100% reference.

Test: 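Genes whose silencing sensitises or protects ovarian cancer cells against rucaparib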 (primary screen)
Cells: human ovarian carcinoma lines grown from tumours: OCI-P5x (papillary serous) and OCI-C5x (clear cell)
Reagent: siRNA pool against human genes, 1.25 pmol siRNA per well
Time to read-out: 72 h or 96 h, depending on the cell culture
Treatment: rucaparib 20 µM (about IC30) or vehicle, present until read-out
Rucaparib or vehicle: Vehicle
Cell line: OCI-C5x (clear cell)
Detection: 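ATP luminescence measured at 72 or 96 h according to the culture, then normalised and expressed as percent viability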
Scale: viability, normalised: higher = more viable cells remaining
Call rule: 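a well counts as a hit if its normalised viability is under 80 percent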
Calls: active = viability under 80%; inactive = viability 80% or more

What did the screen give for EPHA8 (GeneID 2046), technical replicate 1?
viability, normalised (%): 102

With EPHA8 (GeneID 2046), technical replicate 2, what was measured?
viability, normalised (%): 75.5 (active)

Which result is listed for EPHA8 (GeneID 2046), technical replicate 3?
viability, normalised (%): 49.5 (active)

What did the screen give for BRD7P3 (GeneID 23629), technical replicate 1?
viability, normalised (%): 37.3 (active)

For BRD7P3 (GeneID 23629), technical replicate 2, what does the deposit list?
viability, normalised (%): 51.9 (active)

Which result is listed for BRD7P3 (GeneID 23629), technical replicate 3?
viability, normalised (%): 48.5 (active)

What is on record for ING3 (GeneID 54556), technical replicate 1?
viability, normalised (%): 38.7 (active)

For ING3 (GeneID 54556), technical replicate 2, how do the results read?
viability, normalised (%): 62.1 (active)

How did the screen score ING3 (GeneID 54556), technical replicate 3?
viability, normalised (%): 68.4 (active)

Which result is listed for IRAK1 (GeneID 3654), technical replicate 1?
viability, normalised (%): 43.9 (active)

For IRAK1 (GeneID 3654), technical replicate 2, what was measured?
viability, normalised (%): 36.9 (active)

Which result is listed for IRAK1 (GeneID 3654), technical replicate 3?
viability, normalised (%): 45.2 (active)

For BTK (GeneID 695), technical replicate 1, what does the deposit list?
viability, normalised (%): 62.1 (active)

What did the screen give for BTK (GeneID 695), technical replicate 1?
viability, normalised (%): 71.3 (active)

With BTK (GeneID 695), technical replicate 2, how do the results read?
viability, normalised (%): 72.4 (active)

What is on record for BTK (GeneID 695), technical replicate 2?
viability, normalised (%): 68.5 (active)

Which result is listed for BTK (GeneID 695), technical replicate 3?
viability, normalised (%): 55.6 (active)

For BTK (GeneID 695), technical replicate 3, what was measured?
viability, normalised (%): 58.1 (active)

With PRKAG2 (GeneID 51422), technical replicate 1, what was measured?
viability, normalised (%): 47.9 (active)

With PRKAG2 (GeneID 51422), technical replicate 1, how do the results read?
viability, normalised (%): 69.3 (active)

For PRKAG2 (GeneID 51422), technical replicate 2, how do the results read?
viability, normalised (%): 88.7

Which result is listed for PRKAG2 (GeneID 51422), technical replicate 2?
viability, normalised (%): 44.2 (active)

For PRKAG2 (GeneID 51422), technical replicate 3, what does the deposit list?
viability, normalised (%): 39 (active)

Which result is listed for PRKAG2 (GeneID 51422), technical replicate 3?
viability, normalised (%): 55.7 (active)

Looked up above:
Result for IRAK1 (GeneID 3654), technical replicate 2 under “viability, normalised (%)”: 36.9 (active)
Under “viability, normalised (%)”, BRD7P3 (GeneID 23629), technical replicate 1 reads 37.3 (active)
